Reference: the supplement of paper PMC6411743
± gives the standard deviation of the averaged measurements. The list shows a part of the results, in another mix than the full data. Most values lie at the level of the controls, where differences are scatter.

The chains behind the UniProt entries cited, without tags or fusion partners. Where a name states a change or a piece, a line headed by the entry shows the natural chain unless it says otherwise.
UniProt O95336: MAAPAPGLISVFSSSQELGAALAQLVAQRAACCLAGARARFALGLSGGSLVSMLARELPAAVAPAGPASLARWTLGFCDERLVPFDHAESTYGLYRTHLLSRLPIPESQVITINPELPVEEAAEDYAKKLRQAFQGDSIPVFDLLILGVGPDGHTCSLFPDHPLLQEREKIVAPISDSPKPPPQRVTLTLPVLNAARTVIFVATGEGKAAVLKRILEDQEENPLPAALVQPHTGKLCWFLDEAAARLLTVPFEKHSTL
UniProt O94763, whole entry: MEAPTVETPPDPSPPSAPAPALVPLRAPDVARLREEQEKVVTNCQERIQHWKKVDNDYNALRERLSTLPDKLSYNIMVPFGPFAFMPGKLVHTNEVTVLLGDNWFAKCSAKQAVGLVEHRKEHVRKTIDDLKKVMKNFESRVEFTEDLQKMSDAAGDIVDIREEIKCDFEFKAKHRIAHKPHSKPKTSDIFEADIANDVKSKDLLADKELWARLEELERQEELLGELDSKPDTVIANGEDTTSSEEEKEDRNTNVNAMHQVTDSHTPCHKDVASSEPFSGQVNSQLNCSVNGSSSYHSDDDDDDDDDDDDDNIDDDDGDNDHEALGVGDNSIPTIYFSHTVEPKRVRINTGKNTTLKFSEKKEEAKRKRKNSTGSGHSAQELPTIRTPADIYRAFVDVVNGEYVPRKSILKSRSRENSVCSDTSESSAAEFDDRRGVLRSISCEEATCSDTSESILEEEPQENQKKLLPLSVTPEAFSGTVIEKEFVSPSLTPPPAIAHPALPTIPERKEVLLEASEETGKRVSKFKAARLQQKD
UniProt O75844: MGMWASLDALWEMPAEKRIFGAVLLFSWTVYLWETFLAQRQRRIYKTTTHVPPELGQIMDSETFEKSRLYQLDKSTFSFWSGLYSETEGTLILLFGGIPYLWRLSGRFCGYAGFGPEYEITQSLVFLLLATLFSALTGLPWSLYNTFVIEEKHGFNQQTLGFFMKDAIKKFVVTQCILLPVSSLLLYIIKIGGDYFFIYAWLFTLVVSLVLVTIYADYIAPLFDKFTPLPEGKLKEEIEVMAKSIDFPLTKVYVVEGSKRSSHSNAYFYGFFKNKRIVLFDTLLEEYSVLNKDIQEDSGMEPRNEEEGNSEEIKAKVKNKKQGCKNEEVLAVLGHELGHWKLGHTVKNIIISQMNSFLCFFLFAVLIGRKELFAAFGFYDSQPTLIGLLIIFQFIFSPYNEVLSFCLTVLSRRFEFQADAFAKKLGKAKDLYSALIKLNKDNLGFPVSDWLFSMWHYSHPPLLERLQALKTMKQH
UniProt O95167, whole entry: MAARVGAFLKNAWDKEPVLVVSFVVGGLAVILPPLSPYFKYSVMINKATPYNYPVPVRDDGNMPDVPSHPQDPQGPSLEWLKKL
UniProt O75486: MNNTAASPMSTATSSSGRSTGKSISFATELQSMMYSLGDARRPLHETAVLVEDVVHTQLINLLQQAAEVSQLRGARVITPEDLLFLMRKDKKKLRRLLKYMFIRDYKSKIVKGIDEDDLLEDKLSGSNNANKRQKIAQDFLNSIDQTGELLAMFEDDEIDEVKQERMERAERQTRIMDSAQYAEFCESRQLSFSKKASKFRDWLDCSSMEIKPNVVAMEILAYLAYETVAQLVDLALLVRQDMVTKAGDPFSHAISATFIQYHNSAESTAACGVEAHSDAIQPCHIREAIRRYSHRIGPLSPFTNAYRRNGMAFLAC
UniProt O95163: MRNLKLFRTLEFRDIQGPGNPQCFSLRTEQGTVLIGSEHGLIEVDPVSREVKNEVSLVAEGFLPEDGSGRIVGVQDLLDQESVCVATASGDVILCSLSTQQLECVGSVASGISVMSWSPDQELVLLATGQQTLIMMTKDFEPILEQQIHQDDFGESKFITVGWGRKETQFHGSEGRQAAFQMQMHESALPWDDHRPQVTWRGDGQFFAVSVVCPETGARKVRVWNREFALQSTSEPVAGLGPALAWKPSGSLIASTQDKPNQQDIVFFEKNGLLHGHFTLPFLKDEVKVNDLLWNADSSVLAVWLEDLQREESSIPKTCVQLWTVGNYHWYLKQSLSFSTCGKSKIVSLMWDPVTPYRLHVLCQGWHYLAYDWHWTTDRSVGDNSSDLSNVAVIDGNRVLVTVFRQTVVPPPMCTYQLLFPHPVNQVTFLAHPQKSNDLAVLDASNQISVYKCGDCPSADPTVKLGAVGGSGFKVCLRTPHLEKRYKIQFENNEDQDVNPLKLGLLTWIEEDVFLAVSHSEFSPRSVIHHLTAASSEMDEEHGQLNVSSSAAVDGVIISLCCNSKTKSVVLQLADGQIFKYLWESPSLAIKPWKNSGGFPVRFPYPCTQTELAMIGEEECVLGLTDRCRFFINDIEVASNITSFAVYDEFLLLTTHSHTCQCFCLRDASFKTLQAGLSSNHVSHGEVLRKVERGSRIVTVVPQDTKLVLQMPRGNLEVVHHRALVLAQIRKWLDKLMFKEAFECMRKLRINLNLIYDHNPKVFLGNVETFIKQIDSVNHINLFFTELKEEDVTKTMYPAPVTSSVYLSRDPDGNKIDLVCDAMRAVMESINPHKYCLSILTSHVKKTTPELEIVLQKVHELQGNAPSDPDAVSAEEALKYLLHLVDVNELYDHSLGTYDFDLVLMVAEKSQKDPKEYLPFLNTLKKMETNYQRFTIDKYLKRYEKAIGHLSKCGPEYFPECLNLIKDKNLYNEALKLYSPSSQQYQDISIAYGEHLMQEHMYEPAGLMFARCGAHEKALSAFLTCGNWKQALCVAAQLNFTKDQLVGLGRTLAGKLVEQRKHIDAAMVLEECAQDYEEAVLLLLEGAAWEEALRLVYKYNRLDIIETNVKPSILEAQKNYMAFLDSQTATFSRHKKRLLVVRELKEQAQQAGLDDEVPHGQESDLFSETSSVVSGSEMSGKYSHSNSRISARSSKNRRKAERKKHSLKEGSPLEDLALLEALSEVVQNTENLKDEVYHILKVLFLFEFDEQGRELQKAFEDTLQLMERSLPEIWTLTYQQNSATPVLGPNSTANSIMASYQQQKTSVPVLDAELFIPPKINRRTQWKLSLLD
UniProt O94762: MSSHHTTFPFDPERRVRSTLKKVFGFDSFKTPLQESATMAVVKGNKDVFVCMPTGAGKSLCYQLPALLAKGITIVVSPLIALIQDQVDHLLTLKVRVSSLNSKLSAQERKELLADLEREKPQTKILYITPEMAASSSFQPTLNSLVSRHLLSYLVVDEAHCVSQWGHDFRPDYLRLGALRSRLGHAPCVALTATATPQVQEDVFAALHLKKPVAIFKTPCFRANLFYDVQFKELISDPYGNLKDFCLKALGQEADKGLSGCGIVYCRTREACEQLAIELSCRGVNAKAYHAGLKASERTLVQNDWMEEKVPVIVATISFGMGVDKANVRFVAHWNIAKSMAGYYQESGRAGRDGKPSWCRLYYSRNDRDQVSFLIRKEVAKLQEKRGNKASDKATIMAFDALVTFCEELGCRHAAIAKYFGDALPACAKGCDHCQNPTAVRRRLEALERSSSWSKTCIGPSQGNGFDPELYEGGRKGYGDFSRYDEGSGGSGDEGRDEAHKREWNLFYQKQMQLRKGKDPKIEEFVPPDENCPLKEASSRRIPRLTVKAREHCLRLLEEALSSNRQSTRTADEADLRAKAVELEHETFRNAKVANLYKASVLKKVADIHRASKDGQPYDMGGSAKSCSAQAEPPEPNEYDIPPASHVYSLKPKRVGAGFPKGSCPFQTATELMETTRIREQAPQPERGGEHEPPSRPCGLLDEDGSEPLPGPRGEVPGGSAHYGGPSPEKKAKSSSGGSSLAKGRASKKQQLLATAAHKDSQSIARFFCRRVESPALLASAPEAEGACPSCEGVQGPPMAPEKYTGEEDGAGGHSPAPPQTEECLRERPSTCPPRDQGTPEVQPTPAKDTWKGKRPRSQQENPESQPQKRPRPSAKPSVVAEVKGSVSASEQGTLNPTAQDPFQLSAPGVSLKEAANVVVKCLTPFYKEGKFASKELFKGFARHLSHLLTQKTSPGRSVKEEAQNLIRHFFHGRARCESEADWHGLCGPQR
UniProt O75477: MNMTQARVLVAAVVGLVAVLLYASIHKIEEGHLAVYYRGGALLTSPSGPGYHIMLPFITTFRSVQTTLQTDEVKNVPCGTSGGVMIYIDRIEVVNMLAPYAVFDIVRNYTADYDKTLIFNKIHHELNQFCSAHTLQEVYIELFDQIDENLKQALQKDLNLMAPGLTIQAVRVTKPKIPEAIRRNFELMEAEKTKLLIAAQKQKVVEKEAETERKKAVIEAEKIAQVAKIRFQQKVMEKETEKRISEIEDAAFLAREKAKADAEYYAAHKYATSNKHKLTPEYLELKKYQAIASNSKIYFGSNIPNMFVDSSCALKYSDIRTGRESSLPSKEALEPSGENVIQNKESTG
UniProt O60502: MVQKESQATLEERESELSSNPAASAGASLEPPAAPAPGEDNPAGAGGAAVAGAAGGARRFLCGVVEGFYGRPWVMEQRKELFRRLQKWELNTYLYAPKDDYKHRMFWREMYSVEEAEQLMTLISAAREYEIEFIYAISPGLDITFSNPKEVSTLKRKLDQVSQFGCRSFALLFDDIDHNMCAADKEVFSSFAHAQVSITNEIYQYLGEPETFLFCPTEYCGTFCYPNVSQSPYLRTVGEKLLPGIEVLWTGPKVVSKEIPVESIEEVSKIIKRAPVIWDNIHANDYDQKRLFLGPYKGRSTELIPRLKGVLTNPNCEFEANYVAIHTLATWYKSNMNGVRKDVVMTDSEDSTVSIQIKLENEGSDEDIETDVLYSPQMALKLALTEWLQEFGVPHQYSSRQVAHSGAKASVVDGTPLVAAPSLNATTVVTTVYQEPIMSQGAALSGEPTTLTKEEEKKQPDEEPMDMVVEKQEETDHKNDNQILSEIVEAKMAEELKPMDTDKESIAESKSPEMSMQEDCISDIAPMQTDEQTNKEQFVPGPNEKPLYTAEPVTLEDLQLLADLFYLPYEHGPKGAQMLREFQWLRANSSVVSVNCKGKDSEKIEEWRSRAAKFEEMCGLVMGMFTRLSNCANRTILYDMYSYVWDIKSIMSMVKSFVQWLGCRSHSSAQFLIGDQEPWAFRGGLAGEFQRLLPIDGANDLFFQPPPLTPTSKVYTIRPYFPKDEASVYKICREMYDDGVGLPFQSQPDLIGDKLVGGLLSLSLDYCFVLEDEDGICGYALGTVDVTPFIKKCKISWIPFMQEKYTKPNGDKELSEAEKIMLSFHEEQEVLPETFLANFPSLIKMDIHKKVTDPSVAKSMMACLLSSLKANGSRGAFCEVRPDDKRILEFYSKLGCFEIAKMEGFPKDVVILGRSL
UniProt O95352: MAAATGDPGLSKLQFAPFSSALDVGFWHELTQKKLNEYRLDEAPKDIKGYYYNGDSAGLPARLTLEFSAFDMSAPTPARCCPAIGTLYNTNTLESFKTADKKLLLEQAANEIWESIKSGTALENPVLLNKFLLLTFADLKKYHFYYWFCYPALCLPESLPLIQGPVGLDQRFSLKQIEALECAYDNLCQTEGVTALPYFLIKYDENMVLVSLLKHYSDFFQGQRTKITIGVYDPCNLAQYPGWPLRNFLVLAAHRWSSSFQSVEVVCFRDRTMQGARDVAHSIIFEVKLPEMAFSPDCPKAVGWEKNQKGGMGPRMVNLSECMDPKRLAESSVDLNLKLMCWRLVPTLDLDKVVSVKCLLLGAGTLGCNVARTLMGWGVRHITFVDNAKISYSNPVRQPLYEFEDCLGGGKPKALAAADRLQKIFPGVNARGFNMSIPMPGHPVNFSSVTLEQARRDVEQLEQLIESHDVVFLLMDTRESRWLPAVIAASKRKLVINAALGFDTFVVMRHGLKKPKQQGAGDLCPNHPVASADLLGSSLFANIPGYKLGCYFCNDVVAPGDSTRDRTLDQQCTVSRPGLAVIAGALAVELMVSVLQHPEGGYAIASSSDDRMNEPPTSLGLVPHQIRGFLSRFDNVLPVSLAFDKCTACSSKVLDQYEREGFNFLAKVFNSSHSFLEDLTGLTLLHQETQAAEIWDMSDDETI
UniProt O60831: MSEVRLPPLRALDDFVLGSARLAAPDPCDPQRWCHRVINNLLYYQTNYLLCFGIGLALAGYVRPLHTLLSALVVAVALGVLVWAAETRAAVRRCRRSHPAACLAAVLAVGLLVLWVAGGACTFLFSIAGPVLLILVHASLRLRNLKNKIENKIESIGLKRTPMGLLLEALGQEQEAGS
UniProt O75368: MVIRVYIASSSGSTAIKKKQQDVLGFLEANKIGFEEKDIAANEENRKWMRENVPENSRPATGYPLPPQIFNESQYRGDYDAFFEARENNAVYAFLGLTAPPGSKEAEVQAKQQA
UniProt O75794: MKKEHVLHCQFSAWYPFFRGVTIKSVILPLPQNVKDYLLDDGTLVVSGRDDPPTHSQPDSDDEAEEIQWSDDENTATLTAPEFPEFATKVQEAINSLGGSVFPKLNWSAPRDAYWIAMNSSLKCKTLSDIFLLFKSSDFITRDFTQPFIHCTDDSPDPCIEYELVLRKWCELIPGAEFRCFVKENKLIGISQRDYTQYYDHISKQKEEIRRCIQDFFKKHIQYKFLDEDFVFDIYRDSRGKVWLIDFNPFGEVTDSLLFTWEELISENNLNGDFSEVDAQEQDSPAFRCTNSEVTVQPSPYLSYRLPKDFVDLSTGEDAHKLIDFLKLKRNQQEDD

compound: Nc1ncnc2c1ncn2[C@@H]1O[C@H](COP(=O)(O)OP(=O)(O)OP(=O)(O)O)[C@@H](O)[C@H]1O [adenosine triphosphate]; experiment: NP40-soluble protein abundance relative to vehicle (solubility fold change) (ratio); higher = more soluble protein in presence of ATP; conditions: concentration: 0.1mM
How it was run: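 Crude Jurkat lysate, prepared by Dounce homogenisation, was exposed to eight concentrations from 0.1 to 10 mM for 10 min at room temperature and then 3 min at 37 °C. Solubilisation used 0.8% NP40 with benzonase for 60 min at 4 °C, followed by ultracentrifugation and TMT labelling of the supernatant for LC-MS/MS. After vsn normalisation of intensities, each value is the fold change against the detergent-processed vehicle within each replicate, across three independent experiments.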

Question: For PGLS (UniProt O95336), which NP40-soluble protein abundance is on record?
Answer: 0.982 ± 0.057

Question: Which NP40-soluble protein abundance does the source give for UniProt O95104 and related entries here?
Answer: 1.15 ± 0.046

Question: How did the NP40-soluble protein abundance turn out when UniProt O94985-2 was run?
Answer: 0.991 ± 0.054

Question: For UniProt O94763 and related entries, which NP40-soluble protein abundance is on record?
Answer: 0.972 ± 0.025

Question: With UniProt O75396 as the target, how does the NP40-soluble protein abundance read?
Answer: 0.974 ± 0.028

Question: With ZMPSTE24 (UniProt O75844) as the target, how does the NP40-soluble protein abundance read?
Answer: 1.05 ± 0.085

Question: Which NP40-soluble protein abundance does the source give for UniProt O95167 and related entries here?
Answer: 0.747 ± 0.17

Question: For LETM1 (UniProt O95202), which NP40-soluble protein abundance is on record?
Answer: 0.945 ± 0.013

Question: UniProt O75190 and related entries was tested. Which NP40-soluble protein abundance did it give?
Answer: 1.09 ± 0.066

Question: With UniProt O60443 and related entries as the target, how does the NP40-soluble protein abundance read?
Answer: 0.97 ± 0.12

Question: For FARS2 (UniProt O95363), which NP40-soluble protein abundance is on record?
Answer: 1.03 ± 0.046

Question: Which NP40-soluble protein abundance does the source give for UniProt O75486 and related entries here?
Answer: 1.03 ± 0.12

same assay, conditions: concentration: 0.5mM

Question: With UniProt O75528 as the target, how does the NP40-soluble protein abundance read?
Answer: 1 ± 0.036

Question: For UniProt O95251 and related entries, which NP40-soluble protein abundance is on record?
Answer: 1.03 ± 0.1

Question: How did the NP40-soluble protein abundance turn out when UniProt O95163 was run?
Answer: 1.07 ± 0.084

Question: Which NP40-soluble protein abundance does the source give for UniProt O94762 and related entries here?
Answer: 1.02 ± 0.025

Question: How did the NP40-soluble protein abundance turn out when UniProt O95297 and related entries was run?
Answer: 0.938 ± 0.029

Question: Which NP40-soluble protein abundance does the source give for UniProt O75787 and related entries here?
Answer: 0.979 ± 0.055

Question: For UniProt O75175 and related entries, which NP40-soluble protein abundance is on record?
Answer: 1.12 ± 0.058

Question: How did the NP40-soluble protein abundance turn out when ERLIN1 (UniProt O75477) was run?
Answer: 1.04 ± 0.081

Question: With ZFPL1 (UniProt O95159) as the target, how does the NP40-soluble protein abundance read?
Answer: 0.964 ± 0.044

Question: With UniProt O75145 and related entries as the target, how does the NP40-soluble protein abundance read?
Answer: 0.996 ± 0.052

Question: How did the NP40-soluble protein abundance turn out when UniProt O75143 and related entries was run?
Answer: 1.04 ± 0.021

Question: For UniProt O60502 and related entries, which NP40-soluble protein abundance is on record?
Answer: 1.02 ± 0.041

Question: ATG7 (UniProt O95352) was tested. Which NP40-soluble protein abundance did it give?
Answer: 0.977 ± 0.019

Question: For UniProt O95782 and related entries, which NP40-soluble protein abundance is on record?
Answer: 1.06 ± 0.031

Question: How did the NP40-soluble protein abundance turn out when UniProt O60831 and related entries was run?
Answer: 0.932 ± 0.052

Question: Which NP40-soluble protein abundance does the source give for UniProt O75419 and related entries here?
Answer: 1.03 ± 0.05

Question: With UniProt O75534 and related entries as the target, how does the NP40-soluble protein abundance read?
Answer: 1.04 ± 0.071

Question: With UniProt O75928 and related entries as the target, how does the NP40-soluble protein abundance read?
Answer: 0.966 ± 0.058

Question: How did the NP40-soluble protein abundance turn out when SH3BGRL (UniProt O75368) was run?
Answer: 0.959 ± 0.04

Question: With GGCT (UniProt O75223) as the target, how does the NP40-soluble protein abundance read?
Answer: 0.9763 ± 0.0038

Question: Which NP40-soluble protein abundance does the source give for UniProt O75179 and related entries here?
Answer: 0.965 ± 0.045

Question: CDC123 (UniProt O75794) was tested. Which NP40-soluble protein abundance did it give?
Answer: 1.09 ± 0.088

Question: With GLRX3 (UniProt O76003) as the target, how does the NP40-soluble protein abundance read?
Answer: 1.06 ± 0.085

Question: Which NP40-soluble protein abundance does the source give for UniProt O95298 and related entries here?
Answer: 0.904 ± 0.2

Question: For UTP20 (UniProt O75691), which NP40-soluble protein abundance is on record?
Answer: 1.04 ± 0.11

Question: With PGLS (UniProt O95336) as the target, how does the NP40-soluble protein abundance read?
Answer: 0.938 ± 0.075

Question: Which NP40-soluble protein abundance does the source give for UniProt O95104 and related entries here?
Answer: 1.48 ± 0.058

Question: Which NP40-soluble protein abundance does the source give for UniProt O94985-2 here?
Answer: 0.953 ± 0.05

Question: For UniProt O94763 and related entries, which NP40-soluble protein abundance is on record?
Answer: 0.982 ± 0.057

Question: UniProt O75396 was tested. Which NP40-soluble protein abundance did it give?
Answer: 0.958 ± 0.051

Question: With ZMPSTE24 (UniProt O75844) as the target, how does the NP40-soluble protein abundance read?
Answer: 1.04 ± 0.084

Question: For UniProt O95167 and related entries, which NP40-soluble protein abundance is on record?
Answer: 0.792 ± 0.24

Question: For LETM1 (UniProt O95202), which NP40-soluble protein abundance is on record?
Answer: 0.9816 ± 0.0098

Question: Which NP40-soluble protein abundance does the source give for UniProt O75190 and related entries here?
Answer: 1.12 ± 0.065

Question: For UniProt O60443 and related entries, which NP40-soluble protein abundance is on record?
Answer: 0.958 ± 0.052

Question: Which NP40-soluble protein abundance does the source give for FARS2 (UniProt O95363) here?
Answer: 1.03 ± 0.079

Question: UniProt O75486 and related entries was tested. Which NP40-soluble protein abundance did it give?
Answer: 1.12 ± 0.068
